{"source": "patent US20090317476A1", "about": "“COMBINATION OF DEHYDROEPIANDROSTERONE OR DEHYDROEPIANDROSTERONE-SULFATE WITH A LEUKOTRIENE RECEPTOR ANTAGONIST FOR TREATMENT OF ASTHMA OR CHRONIC OBSTRUCTIVE PULMONARY DISEASE” (priority 2003, published 2009)", "test": "Aerosolization with single-dose Acu-Breathe device, fine particle fraction", "conditions": "IDL data; 30 L/min; result set to zero"}
{"smiles": "C[C@]12CC[C@H](OS(=O)(=O)[O-])CC1=CC[C@@H]1[C@@H]2CC[C@]2(C)C(=O)CC[C@@H]12.[Na+]", "note": "[Anhydrous DHEA-S]", "values": [{"measurement": "Fine particle fraction", "value": "no detectable mass entered the impactor"}]}
